The list shows a part of the results.
Compound: Cc1cc(ccc1-c1ccccc1)C(=O)N1CCCN(CC1)C(=O)CCl [compound 10]
Assay: probe-labelled cysteine peptide fold change vs DMSO (competition) (log2 fold change); higher = less target engagement (more negative = stronger competition)
Conditions: THP-1, incubation time: 4 h
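Also: competitive profiling in live THP-1 cells: cysteine peptides tagged with an iodoacetamide desthiobiotin (IA-DTB) probe, intensity after compound treatment relative to DMSO-treated cells.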

Protein sequences, listed by entry. Tags and fused reporters are not part of them. Lines headed by an entry give the natural chain unless they say otherwise; changes in a name come on top.
UniProt Q3KQU3: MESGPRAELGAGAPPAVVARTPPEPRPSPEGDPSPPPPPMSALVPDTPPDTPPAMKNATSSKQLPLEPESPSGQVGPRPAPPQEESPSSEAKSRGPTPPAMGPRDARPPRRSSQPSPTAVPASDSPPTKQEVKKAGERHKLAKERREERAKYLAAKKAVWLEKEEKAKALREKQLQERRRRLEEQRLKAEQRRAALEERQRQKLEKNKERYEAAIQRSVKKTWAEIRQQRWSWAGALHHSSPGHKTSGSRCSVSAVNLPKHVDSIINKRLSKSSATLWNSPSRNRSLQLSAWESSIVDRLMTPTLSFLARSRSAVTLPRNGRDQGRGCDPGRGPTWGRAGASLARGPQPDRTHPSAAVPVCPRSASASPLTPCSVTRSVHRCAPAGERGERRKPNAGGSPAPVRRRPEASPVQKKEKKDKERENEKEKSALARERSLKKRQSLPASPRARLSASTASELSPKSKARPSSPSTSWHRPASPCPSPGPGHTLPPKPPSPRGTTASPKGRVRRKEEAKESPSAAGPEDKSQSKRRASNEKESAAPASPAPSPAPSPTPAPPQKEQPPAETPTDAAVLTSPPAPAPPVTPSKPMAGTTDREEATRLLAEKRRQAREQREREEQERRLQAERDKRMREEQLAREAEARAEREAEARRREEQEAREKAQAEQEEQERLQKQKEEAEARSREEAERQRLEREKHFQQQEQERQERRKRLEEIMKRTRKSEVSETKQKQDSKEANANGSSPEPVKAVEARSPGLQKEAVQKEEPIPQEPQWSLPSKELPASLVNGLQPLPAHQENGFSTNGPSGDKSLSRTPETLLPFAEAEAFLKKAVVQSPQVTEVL
UniProt Q5U5X0: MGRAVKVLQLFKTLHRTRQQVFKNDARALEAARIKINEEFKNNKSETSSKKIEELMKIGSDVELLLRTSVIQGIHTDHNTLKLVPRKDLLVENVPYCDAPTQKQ
UniProt Q66K74: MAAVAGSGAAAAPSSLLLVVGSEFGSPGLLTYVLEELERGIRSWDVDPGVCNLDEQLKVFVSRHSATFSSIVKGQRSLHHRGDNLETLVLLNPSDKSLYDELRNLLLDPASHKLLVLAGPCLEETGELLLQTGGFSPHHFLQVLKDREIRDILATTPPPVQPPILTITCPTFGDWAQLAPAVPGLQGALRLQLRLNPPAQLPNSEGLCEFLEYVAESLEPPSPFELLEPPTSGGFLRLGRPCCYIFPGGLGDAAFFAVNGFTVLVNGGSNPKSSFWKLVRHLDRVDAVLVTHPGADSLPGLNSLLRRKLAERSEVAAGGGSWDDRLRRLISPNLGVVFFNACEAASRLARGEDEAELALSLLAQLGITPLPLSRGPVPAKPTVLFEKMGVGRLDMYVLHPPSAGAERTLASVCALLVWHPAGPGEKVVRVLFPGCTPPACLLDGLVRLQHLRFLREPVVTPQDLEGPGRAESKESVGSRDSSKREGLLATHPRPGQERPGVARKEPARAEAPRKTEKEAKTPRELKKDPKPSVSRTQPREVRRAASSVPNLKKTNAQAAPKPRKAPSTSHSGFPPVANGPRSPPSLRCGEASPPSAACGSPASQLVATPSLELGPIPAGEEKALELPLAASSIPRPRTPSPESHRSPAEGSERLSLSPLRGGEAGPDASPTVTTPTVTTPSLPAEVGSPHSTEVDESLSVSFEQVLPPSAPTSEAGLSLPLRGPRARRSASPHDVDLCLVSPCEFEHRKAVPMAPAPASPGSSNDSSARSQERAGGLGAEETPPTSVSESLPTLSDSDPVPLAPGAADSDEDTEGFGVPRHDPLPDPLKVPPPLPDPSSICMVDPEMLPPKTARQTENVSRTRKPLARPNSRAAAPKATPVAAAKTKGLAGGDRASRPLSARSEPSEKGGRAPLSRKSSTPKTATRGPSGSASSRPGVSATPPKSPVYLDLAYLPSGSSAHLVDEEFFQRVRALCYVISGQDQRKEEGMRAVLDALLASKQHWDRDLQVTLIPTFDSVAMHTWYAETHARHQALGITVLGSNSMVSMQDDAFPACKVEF
UniProt Q9NQ29: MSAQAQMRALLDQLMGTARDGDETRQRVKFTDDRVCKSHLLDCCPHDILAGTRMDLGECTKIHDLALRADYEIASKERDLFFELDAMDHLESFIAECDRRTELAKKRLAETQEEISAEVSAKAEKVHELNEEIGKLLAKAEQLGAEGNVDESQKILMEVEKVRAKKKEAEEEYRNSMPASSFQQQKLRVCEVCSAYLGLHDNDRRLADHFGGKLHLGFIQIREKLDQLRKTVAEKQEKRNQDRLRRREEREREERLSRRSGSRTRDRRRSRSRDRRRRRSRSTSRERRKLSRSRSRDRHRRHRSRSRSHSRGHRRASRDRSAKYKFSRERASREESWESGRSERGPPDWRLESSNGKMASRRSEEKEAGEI
UniProt Q99698: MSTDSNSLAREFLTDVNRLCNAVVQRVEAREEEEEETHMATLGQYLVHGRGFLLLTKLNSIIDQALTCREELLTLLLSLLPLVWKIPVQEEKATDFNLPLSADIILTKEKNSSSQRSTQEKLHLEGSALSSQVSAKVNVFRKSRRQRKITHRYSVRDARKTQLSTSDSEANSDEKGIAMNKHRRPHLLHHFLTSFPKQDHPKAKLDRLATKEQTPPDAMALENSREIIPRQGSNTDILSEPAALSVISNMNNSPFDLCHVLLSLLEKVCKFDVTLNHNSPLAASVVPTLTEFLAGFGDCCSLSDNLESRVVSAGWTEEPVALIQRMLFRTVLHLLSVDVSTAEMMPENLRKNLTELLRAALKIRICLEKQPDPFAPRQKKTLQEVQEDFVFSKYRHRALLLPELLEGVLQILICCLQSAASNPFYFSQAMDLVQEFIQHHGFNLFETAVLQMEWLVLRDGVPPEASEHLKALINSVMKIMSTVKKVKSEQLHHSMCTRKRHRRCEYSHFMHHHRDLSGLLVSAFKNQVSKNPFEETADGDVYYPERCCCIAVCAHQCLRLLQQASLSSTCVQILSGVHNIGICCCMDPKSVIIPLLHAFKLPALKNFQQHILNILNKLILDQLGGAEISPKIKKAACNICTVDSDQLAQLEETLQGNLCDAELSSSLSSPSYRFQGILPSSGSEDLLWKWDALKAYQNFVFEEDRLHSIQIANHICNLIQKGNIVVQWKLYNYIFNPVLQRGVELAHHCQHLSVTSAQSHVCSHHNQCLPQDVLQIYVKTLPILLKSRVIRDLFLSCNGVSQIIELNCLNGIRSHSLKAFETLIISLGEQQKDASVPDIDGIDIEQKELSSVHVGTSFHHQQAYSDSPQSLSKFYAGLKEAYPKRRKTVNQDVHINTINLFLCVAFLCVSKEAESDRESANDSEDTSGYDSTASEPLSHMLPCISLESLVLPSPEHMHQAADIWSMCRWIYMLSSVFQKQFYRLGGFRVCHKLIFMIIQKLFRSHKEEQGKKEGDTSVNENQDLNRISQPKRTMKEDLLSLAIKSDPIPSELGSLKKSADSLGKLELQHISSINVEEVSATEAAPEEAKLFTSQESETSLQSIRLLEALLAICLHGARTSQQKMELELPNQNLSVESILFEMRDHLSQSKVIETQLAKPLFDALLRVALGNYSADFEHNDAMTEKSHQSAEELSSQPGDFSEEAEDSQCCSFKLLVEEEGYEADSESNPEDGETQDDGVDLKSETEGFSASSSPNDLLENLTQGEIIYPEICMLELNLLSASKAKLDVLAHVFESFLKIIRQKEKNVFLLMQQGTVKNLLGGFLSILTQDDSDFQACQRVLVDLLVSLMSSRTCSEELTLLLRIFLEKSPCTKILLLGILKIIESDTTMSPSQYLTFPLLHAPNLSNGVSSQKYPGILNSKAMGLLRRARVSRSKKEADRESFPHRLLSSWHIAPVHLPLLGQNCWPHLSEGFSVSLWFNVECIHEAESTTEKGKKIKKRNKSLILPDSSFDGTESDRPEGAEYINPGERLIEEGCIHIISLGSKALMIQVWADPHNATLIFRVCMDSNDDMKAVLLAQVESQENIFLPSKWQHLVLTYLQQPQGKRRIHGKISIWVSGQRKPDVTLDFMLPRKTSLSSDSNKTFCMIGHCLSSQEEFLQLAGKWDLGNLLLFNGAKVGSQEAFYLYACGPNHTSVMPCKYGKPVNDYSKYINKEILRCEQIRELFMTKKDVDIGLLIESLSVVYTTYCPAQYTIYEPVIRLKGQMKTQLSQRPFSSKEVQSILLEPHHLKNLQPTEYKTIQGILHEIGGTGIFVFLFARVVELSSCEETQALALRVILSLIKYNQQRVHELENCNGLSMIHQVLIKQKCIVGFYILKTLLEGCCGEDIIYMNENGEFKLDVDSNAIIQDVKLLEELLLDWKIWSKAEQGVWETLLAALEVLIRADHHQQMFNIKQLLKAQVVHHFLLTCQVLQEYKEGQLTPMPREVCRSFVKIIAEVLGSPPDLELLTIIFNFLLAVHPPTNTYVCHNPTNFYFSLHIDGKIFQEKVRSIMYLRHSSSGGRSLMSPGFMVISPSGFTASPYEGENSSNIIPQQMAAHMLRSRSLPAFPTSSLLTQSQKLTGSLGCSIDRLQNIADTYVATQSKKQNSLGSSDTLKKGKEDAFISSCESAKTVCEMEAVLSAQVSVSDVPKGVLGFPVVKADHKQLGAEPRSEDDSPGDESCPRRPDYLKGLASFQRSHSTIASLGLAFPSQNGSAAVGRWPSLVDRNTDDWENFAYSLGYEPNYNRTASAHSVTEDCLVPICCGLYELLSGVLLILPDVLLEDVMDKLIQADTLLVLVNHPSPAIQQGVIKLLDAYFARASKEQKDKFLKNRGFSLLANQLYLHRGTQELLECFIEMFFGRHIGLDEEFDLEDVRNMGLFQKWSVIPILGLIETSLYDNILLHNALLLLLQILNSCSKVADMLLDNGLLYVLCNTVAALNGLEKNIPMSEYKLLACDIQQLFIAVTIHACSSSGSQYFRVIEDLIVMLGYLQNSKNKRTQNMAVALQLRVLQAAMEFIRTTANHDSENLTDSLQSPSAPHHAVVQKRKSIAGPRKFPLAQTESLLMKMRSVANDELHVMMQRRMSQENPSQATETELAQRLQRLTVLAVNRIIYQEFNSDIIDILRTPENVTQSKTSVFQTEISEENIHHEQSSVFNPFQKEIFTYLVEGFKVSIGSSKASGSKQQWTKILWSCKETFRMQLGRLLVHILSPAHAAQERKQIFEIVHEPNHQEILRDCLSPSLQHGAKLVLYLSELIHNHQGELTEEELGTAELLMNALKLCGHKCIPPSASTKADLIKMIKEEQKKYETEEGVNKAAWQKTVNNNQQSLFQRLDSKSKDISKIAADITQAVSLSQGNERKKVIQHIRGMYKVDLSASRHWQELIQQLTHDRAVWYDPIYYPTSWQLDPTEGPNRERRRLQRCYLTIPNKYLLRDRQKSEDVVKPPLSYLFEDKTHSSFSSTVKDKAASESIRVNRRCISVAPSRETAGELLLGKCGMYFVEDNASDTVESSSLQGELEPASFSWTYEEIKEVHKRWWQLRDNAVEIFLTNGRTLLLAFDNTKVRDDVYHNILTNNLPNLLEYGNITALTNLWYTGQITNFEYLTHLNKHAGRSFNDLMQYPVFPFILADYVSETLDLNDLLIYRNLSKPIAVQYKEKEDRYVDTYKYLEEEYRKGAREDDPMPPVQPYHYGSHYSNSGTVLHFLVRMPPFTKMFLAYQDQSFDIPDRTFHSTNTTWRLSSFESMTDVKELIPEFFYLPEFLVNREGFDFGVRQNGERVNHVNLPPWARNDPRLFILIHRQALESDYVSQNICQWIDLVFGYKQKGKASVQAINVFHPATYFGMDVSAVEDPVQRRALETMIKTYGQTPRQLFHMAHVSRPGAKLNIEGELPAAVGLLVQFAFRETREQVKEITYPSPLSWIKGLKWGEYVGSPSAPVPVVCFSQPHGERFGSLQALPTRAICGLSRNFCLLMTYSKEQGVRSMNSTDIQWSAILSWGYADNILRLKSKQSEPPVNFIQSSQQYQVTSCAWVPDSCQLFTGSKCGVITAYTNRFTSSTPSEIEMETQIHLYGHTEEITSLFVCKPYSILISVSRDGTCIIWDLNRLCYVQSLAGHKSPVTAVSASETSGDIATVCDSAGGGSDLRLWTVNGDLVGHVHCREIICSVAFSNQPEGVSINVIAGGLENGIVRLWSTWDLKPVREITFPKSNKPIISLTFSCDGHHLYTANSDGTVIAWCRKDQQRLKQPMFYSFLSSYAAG

Target | probe-labelled cysteine peptide fold change (10 µM) | probe-labelled cysteine peptide fold change (50 µM)
LYZ_P61626_83_YWCNDGK (UniProt P61626) | 0.00228 | -0.21
MADD_Q8WXG6_1489_LINMTYCPK (UniProt Q8WXG6) | -0.139 | -1.56
MAK16_Q9BXY0_39_NEYSLTGLCNR (UniProt Q9BXY0) | 0.173 | -0.348
MAP7D1_Q3KQU3_251_CSVSAVNLPK (UniProt Q3KQU3) | 0.00205 | -0.316
MCCC2_Q9HCC0_167_LPCIYLVDSGGAYLPR (UniProt Q9HCC0) | 0.399 | 0.261
MACF1_Q9UPN3_7133_QVAQCK (UniProt Q9UPN3) | 0.0482 | -0.258
MACF1_Q9UPN3_919_VISPTGNEAMVPSVCFLIPPPNK (UniProt Q9UPN3) | 0.24 | 0.296
MACF1_Q9UPN3_6075_ILGADLIFACGETEKPEVR (UniProt Q9UPN3) | -0.00571 | 0.337
MAZ_P56270_339_SHDGAVHKPYNCSHCGK (UniProt P56270) | 0.0248 | -0.168
LYPLA1_O75608_53_YICPHAPVRPVTLNMNVAMPSWFDIIGLSPDSQEDESGIK (UniProt O75608) | -0.0244 | -0.102
MANBA_O00462_769_ESCVVSFYLSADHELLSPTNYHFLSSPK (UniProt O00462) | 0.153 | 0.128
MCCC1_Q96RQ3_509_ESLCQAALGLILK (UniProt Q96RQ3) | 0.373 | 0.295
LYAR_Q9NX58_51_CISEDQK (UniProt Q9NX58) | 0.032 | -0.0969
LYRM7_Q5U5X0_97_KDLLVENVPYCDAPTQK (UniProt Q5U5X0) | -0.324 | -0.539
MAPK9_P45984_213_ENVDIWSVGCIMGELVK (UniProt P45984) | 0.102 | 0.08
MATR3_P43243_821_NTHCSSLPHYQK (UniProt P43243) | 0.214 | 0.037
LY75_O60449_922_TWLIDLGKPTDCSTK (UniProt O60449) | -0.0612 | 0.0278
MAP7D1_Q3KQU3-4_329_DQAVPVCPR (UniProt Q3KQU3) | -0.267 | -0.146
MBD1_Q9UIS9_525_ADTQDEWTPGTAVLTSPVLVPGCPSK (UniProt Q9UIS9) | -0.0342 | -0.125
MAP4K2_Q12851_473_VHMGACFSK (UniProt Q12851) | -0.00961 | -0.0832

Target | probe-labelled cysteine peptide fold change (10 µM) | probe-labelled cysteine peptide fold change (50 µM)
MAP1S_Q66K74_743_SASPHDVDLCLVSPCEFEHR (UniProt Q66K74) | -0.443 | -0.145
MAP3K4_Q9Y6R4_1581_DFLSHCLESDPK (UniProt Q9Y6R4) | 0.0195 | -0.0136
MAPK9_P45984_177_TACTNFMMTPYVVTR (UniProt P45984) | -0.494 | -1.64
MACF1_Q9UPN3_5346_IAQLQEALLHCGK (UniProt Q9UPN3) | 0.0624 | 0.0886
MARS_P56192_12_LFVSDGVPGCLPVLAAAGR (UniProt P56192) | -0.0423 | 0.0818
LUC7L_Q9NQ29_43+44_SHLLDCCPHDILAGTR (UniProt Q9NQ29) | 0.195 | -0.258
LYST_Q99698_2168_GKEDAFISSCESAK (UniProt Q99698) | -0.516 | -0.608
LYST_Q99698_504_CEYSHFMHHHR (UniProt Q99698) | -0.0365 | -0.0129
MAP3K3_Q99759_430_IVQYYGCLR (UniProt Q99759) | -0.109 | 0.013
LYST_Q99698_3586_CGVITAYTNR (UniProt Q99698) | 0.0559 | 0.0755
MATR3_P43243_552_EDAMAMVDHCLK (UniProt P43243) | 0.0807 | 0.337
LYPLA2_O95372_171_DLAILQCHGELDPMVPVR (UniProt O95372) | -0.092 | -0.0885
MANF_P55145_151_ILDDWGETCK (UniProt P55145) | -0.142 | -0.103
LY75_O60449_1422_VTWYEALNMCSQSGGHLASVHNQNGQLFLEDIVKR (UniProt O60449) | 0.482 | 0.37
MCAT_Q8IVS2_120_TVHCQPAIFVASLAAVEK (UniProt Q8IVS2) | -0.204 | 0.217
MAPK1_P28482_254_HYLDQLNHILGILGSPSQEDLNCIINLK (UniProt P28482) | -0.204 | 0.511
MAPKBP1_O60336_1443_LYHSVAGCK (UniProt O60336) | 0.146 | 0.0505
LUC7L_Q9NQ29_97_ERDLFFELDAMDHLESFIAECDR (UniProt Q9NQ29) | -0.026 | 0.216
MAT2A_P31153_56_VACETVAK (UniProt P31153) | -0.251 | -0.00358
MAP1S_Q66K74_51_SWDVDPGVCNLDEQLK (UniProt Q66K74) | 0.00683 | -0.0249

Source: the supplement of paper PMC12067093, “Discovery and optimisation of a covalent ligand for TRIM25 and its application to targeted protein ubiquitination” (Chemical Science, 2025)
